Patent US20210101984A1 (JIANGSU HENGRUI MEDICINE, published 2021)
These are yes or no findings as the source states them, for the method shown. Some results given as binding are weak or reduced against the parent protein; the word gives no strength.

Key:
[1] = target: T1, human 4Ig-B7-H3 antigen (SinoBiological cat# 11188-H08H) (human) (UniProt Q5ZPR3); assay: ELISA, plate coated with human 4Ig-B7-H3 at 1 ug/ml, HRP anti-human IgG Fc detection, OD450
T1 sequence: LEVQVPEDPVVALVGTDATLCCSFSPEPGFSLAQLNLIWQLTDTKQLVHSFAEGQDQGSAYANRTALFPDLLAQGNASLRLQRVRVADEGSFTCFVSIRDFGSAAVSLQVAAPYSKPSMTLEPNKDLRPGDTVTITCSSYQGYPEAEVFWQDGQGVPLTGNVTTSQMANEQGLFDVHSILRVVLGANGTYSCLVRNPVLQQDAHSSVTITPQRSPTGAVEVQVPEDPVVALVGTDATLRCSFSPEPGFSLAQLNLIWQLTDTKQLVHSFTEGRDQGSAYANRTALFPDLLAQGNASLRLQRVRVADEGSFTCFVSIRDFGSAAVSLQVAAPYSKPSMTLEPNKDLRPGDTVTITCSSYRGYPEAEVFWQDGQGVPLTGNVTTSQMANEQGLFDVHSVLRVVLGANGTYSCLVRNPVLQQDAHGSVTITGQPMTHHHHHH

[2] = target: T2, murine B7-H3 antigen (R&D cat# 1397-B3-050/CF) (murine) (UniProt Q8VE98); assay: ELISA, plate coated with murine B7-H3 at 1 ug/ml, HRP anti-human IgG Fc detection, OD450
T2 sequence: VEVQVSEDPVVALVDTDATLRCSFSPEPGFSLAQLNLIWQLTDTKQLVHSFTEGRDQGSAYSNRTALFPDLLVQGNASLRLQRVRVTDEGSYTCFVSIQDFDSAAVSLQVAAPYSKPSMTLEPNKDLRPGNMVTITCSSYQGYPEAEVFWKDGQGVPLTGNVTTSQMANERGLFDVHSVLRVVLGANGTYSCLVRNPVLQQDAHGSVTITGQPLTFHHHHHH

[3] = target: T3, human 2Ig-B7-H3 antigen (R&D cat# 1949-B3-050/CF) (human) (UniProt Q5ZPR3); assay: ELISA
T3 sequence: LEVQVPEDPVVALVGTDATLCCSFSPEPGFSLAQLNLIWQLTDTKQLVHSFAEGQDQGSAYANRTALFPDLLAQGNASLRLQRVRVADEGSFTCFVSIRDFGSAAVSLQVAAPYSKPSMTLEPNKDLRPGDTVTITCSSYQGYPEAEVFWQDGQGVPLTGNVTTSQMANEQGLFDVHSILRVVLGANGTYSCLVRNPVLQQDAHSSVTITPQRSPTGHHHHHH

[4] = target: T2, murine B7-H3 antigen (R&D cat# 1397-B3-050/CF) (murine); assay: ELISA
[5] = target: T1, human 4Ig-B7-H3 antigen (SinoBiological cat# 11188-H08H) (human); assay: ELISA
[6] = target: T3, human 2Ig-B7-H3 antigen (R&D cat# 1949-B3-050/CF) (human); assay: SPR (Biacore)
[7] = target: T2, murine B7-H3 antigen (R&D cat# 1397-B3-050/CF) (murine); assay: SPR (Biacore)
[8] = target: T1, human 4Ig-B7-H3 antigen (SinoBiological cat# 11188-H08H) (human); assay: SPR (Biacore)
[9] = target: T3, human 2Ig-B7-H3 antigen (R&D cat# 1949-B3-050/CF) (human); assay: ELISA, plate coated with human 2Ig-B7-H3 at 1 ug/ml, HRP anti-human IgG Fc detection, OD450

Measured: binding

B1: h1703-IgG1 (antibody, V domains shown)
VH: QVQLQESGGGLVQPGGSLRLSCAASGFTFSSYAMSWVRQAPGKGLEWVSAISGSGGSTYYADSVKGRYTISRDNSKNTLYLQMNSLRAEDTAVYYCAKGVGPVHALDVWGQGTTVTVSS
VL: DIRLTQSPSSLSASVGDRVTITCRASQSISTYLNWYQQKPGKAPILLINAVSGLQSGVPSRFSGSGSGTHFTLTITSLQPEDFATYYCQQSYSTPMWTFGQGTKVEIKR
notes: Fully human IgG1 with kappa light chain, from an scFv phage library, expressed in HEK293E cells
binds: all assays above
